According to the supplement of paper PMC10470496:
Counter-ions that a name gives are not always drawn. The list shows a part of the results. Repeats are few or missing, and single values can be far off.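 The three strains are clinical Candida auris isolates from the CDC resistance isolate bank, from clades III, IV and I, grown in RPMI-1640 at 35°C. Growth is background-corrected OD600 relative to vehicle-only wells on the same plate; a hit meant over 50% inhibition in at least two strains plus a plate-corrected B-score above 0.1.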

Columns and labels:
Test in all cases: growth relative to vehicle control (OD600 ratio) (fraction); higher = less inhibition
Conditions in all cases: 24 h
C. auris AR-384 = system: C. auris AR-384
C. auris AR-386 = system: C. auris AR-386
C. auris AR-387 = system: C. auris AR-387

Row | SMILES | growth (C. auris AR-384; 1 µM) | growth (C. auris AR-384; 10 µM) | growth (C. auris AR-386; 1 µM) | growth (C. auris AR-386; 10 µM) | growth (C. auris AR-387; 1 µM) | growth (C. auris AR-387; 10 µM)
1 | CC(CCc1ccc(O)cc1)NCC(O)c1ccc(O)cc1 (stereo not given) [Ractopamine HCl] | 1.04 | 0.83 | 0.78 | 0.96 | 0.71 | 0.87
2 | OCc1cc([C@@H](O)CNCCCCCCOCCOCc2c(Cl)cccc2Cl)ccc1O [Vilanterol Trifenate] | 1.09 | 1.05 | 0.86 | 1.4 | 1.09 | 1.3
3 | CCCCCCCC(=O)N[C@H](CN1CCCC1)[C@H](O)c1ccc2c(c1)OCCO2 [Eliglustat] | 0.97 | 0.97 | 0.93 | 0.66 | 0.94 | 0.76
4 | COc1cc([C@@H]2c3cc4c(cc3[C@@H](O[C@@H]3O[C@@H]5CO[C@@H](c6cccs6)O[C@H]5[C@H](O)[C@H]3O)[C@H]3COC(=O)[C@H]23)OCO4)cc(OC)c1O [Teniposide] | 0.78 | 0.77 | 0.68 | 0.66 | 0.66 | 0.71
5 | CC(=O)O[C@H]1C[C@@]2(C)[C@@H](C[C@@H](O)[C@H]3[C@@]4(C)CC[C@@H](O)[C@@H](C)[C@@H]4CC[C@@]32C)/C1=C(\CCC=C(C)C)C(=O)O [Fusidate Sodium] | 0.86 | 0.6 | 0.83 | 0.55 | 0.89 | 0.82
6 | C=CC[N+]1([C@H]2C[C@H]3[C@@H]4CC[C@H]5C[C@H](O)[C@@H](N6CCOCC6)C[C@]5(C)[C@H]4CC[C@]3(C)[C@H]2OC(C)=O)CCCC1 [Rocuronium Bromide] | 0.86 | 0.93 | 0.8 | 0.67 | 1.02 | 0.79
7 | O=c1oc2ccccc2c(O)c1Cc1c(O)c2ccccc2oc1=O [Dicoumarol] | 0.78 | 0.71 | 0.86 | 1 | 0.77 | 0.67
8 | O=C(O[C@H]1CN2CCC1CC2)N1CCc2ccccc2[C@@H]1c1ccccc1 [Solifenacin succinate] | 0.87 | 1.02 | 1.08 | 0.81 | 0.86 | 0.99
9 | c1ccc(C2CN3CCSC3=N2)cc1 (stereo not given) [Tetramisole HCl] | 0.58 | 0.38 | 0.8 | 0.71 | 0.72 | 0.62
10 | CC(C)(C)C(=O)Oc1ccc(S(=O)(=O)Nc2ccccc2C(=O)NCC(=O)O)cc1 [Sivelestat sodium tetrahydrate] | 0.81 | 0.76 | 0.86 | 0.66 | 1.03 | 0.83
11 | C[C@H](CCC(=O)O)[C@H]1CC[C@H]2[C@@H]3[C@H](O)C[C@@H]4C[C@H](O)CC[C@]4(C)[C@H]3CC[C@]12C [Chenodeoxycholic Acid] | 1.05 | 1.39 | 0.98 | 1.58 | 1.16 | 1.43
12 | CC1CC(OC(=O)C(O)c2ccccc2)CC(C)(C)C1 (stereo not given) [Cyclandelate] | 0.84 | 0.74 | 0.88 | 0.39 | 0.59 | 0.73
13 | O=C1c2ccccc2C(=O)C1c1ccccc1 [Phenindione] | 0.88 | 0.85 | 1.03 | 1.15 | 1.08 | 0.89
14 | Nc1nc(F)nc2c1ncn2[C@@H]1O[C@H](CO)[C@@H](O)[C@@H]1O [Fludarabine] | 0.52 | 0.42 | 0.62 | 0.62 | 0.7 | 0.68
15 | C=C[C@H]1CN2CC[C@H]1C[C@@H]2[C@@H](O)c1ccnc2ccc(OC)cc12 [Quinidine sulfate] | 0.82 | 0.81 | 0.67 | 0.97 | 0.94 | 1.11
16 | O=C1CN2Cc3c(ccc(Cl)c3Cl)N=C2N1 [Anagrelide HCl] | 0.98 | 0.94 | 0.83 | 0.98 | 0.75 | 0.86
17 | CC1(O)CCC(C(C)(C)O)CC1 (stereo not given) [Terpin hydrate] | 0.75 | 0.81 | 0.69 | 0.54 | 0.59 | 0.73
18 | Cc1cc(C2CCCCC2)n(O)c(=O)c1 [Ciclopirox] | 1.19 | 0.38 | 0.81 | 0.1 | 0.58 | 0.01
19 | COc1ccc(NS(=O)(=O)c2ccc(N)cc2)nn1 [Sulfamethoxypyridazine] | 0.82 | 0.85 | 1.09 | 0.82 | 1.06 | 0.86
20 | Cn1c(=O)cc(N2CCC[C@@H](N)C2)n(Cc2cc(F)ccc2C#N)c1=O [Trelagliptin] | 0.94 | 0.77 | 1.03 | 0.98 | 0.94 | 1.01
21 | O=C(C1CCCCC1)N1CC(=O)N2CCc3ccccc3C2C1 (stereo not given) [Praziquantel] | 0.93 | 0.67 | 0.8 | 0.76 | 0.85 | 0.77
22 | CNCCc1ccccn1 [Betahistine 2HCl] | 0.9 | 0.84 | 0.58 | 0.75 | 0.65 | 0.73
23 | Cc1ccc(Sc2ccccc2N2CCNCC2)c(C)c1 | 1.19 | 1.03 | 0.91 | 0.87 | 0.81 | 0.87
24 | Cc1nc(Nc2ncc(C(=O)Nc3c(C)cccc3Cl)s2)cc(N2CCN(CCO)CC2)n1 [Dasatinib] | 0.77 | 0.48 | 0.67 | 0.76 | 0.8 | 0.75
25 | Clc1ccc(C(c2ccccc2Cl)C(Cl)Cl)cc1 (stereo not given) [Mitotane] | 0.91 | 1.09 | 1.24 | 1.24 | 1 | 1.05

Twelve structures from above, arranged by length of the SMILES, descending.
Row | SMILES | growth (C. auris AR-384; 1 µM) | growth (C. auris AR-384; 10 µM) | growth (C. auris AR-386; 1 µM) | growth (C. auris AR-386; 10 µM) | growth (C. auris AR-387; 1 µM) | growth (C. auris AR-387; 10 µM)
4 | COc1cc([C@@H]2c3cc4c(cc3[C@@H](O[C@@H]3O[C@@H]5CO[C@@H](c6cccs6)O[C@H]5[C@H](O)[C@H]3O)[C@H]3COC(=O)[C@H]23)OCO4)cc(OC)c1O [Teniposide] | 0.78 | 0.77 | 0.68 | 0.66 | 0.66 | 0.71
6 | C=CC[N+]1([C@H]2C[C@H]3[C@@H]4CC[C@H]5C[C@H](O)[C@@H](N6CCOCC6)C[C@]5(C)[C@H]4CC[C@]3(C)[C@H]2OC(C)=O)CCCC1 [Rocuronium Bromide] | 0.86 | 0.93 | 0.8 | 0.67 | 1.02 | 0.79
15 | C=C[C@H]1CN2CC[C@H]1C[C@@H]2[C@@H](O)c1ccnc2ccc(OC)cc12 [Quinidine sulfate] | 0.82 | 0.81 | 0.67 | 0.97 | 0.94 | 1.11
20 | Cn1c(=O)cc(N2CCC[C@@H](N)C2)n(Cc2cc(F)ccc2C#N)c1=O [Trelagliptin] | 0.94 | 0.77 | 1.03 | 0.98 | 0.94 | 1.01
2 | OCc1cc([C@@H](O)CNCCCCCCOCCOCc2c(Cl)cccc2Cl)ccc1O [Vilanterol Trifenate] | 1.09 | 1.05 | 0.86 | 1.4 | 1.09 | 1.3
21 | O=C(C1CCCCC1)N1CC(=O)N2CCc3ccccc3C2C1 (stereo not given) [Praziquantel] | 0.93 | 0.67 | 0.8 | 0.76 | 0.85 | 0.77
1 | CC(CCc1ccc(O)cc1)NCC(O)c1ccc(O)cc1 (stereo not given) [Ractopamine HCl] | 1.04 | 0.83 | 0.78 | 0.96 | 0.71 | 0.87
19 | COc1ccc(NS(=O)(=O)c2ccc(N)cc2)nn1 [Sulfamethoxypyridazine] | 0.82 | 0.85 | 1.09 | 0.82 | 1.06 | 0.86
13 | O=C1c2ccccc2C(=O)C1c1ccccc1 [Phenindione] | 0.88 | 0.85 | 1.03 | 1.15 | 1.08 | 0.89
9 | c1ccc(C2CN3CCSC3=N2)cc1 (stereo not given) [Tetramisole HCl] | 0.58 | 0.38 | 0.8 | 0.71 | 0.72 | 0.62
17 | CC1(O)CCC(C(C)(C)O)CC1 (stereo not given) [Terpin hydrate] | 0.75 | 0.81 | 0.69 | 0.54 | 0.59 | 0.73
22 | CNCCc1ccccn1 [Betahistine 2HCl] | 0.9 | 0.84 | 0.58 | 0.75 | 0.65 | 0.73

The listing continues:

Row | SMILES | growth (C. auris AR-384; 1 µM) | growth (C. auris AR-384; 10 µM) | growth (C. auris AR-386; 1 µM) | growth (C. auris AR-386; 10 µM) | growth (C. auris AR-387; 1 µM) | growth (C. auris AR-387; 10 µM)
26 | C1N2CN3CN1CN(C2)C3 [Methenamine] | 0.95 | 0.99 | 1.08 | 1.18 | 0.86 | 0.88
27 | CN(C/C=C/C#CC(C)(C)C)Cc1cccc2ccccc12 [Terbinafine] | 0.37 | 0.84 | 0.48 | 1.13 | 0.33 | 0.74
28 | C[C@H](Nc1ncnc2nc[nH]c12)c1cc2cccc(Cl)c2c(=O)n1-c1ccccc1 [Duvelisib (IPI-145, INK1197)] | 0.71 | 0.75 | 0.86 | 0.55 | 0.55 | 0.52
29 | CC1(COc2ccc3c(c2)ncn3-c2ccc3cccc(N4CCC(N)CC4)c3n2)COC1 | 0.67 | 0.89 | 0.8 | 0.91 | 0.93 | 0.85
30 | COc1ccc(C(=O)c2ccccc2O)c(O)c1 [2,2′-Dihydroxy-4-methoxybenzophenone] | 0.83 | 0.65 | 0.72 | 0.61 | 0.67 | 0.6
31 | O=C(c1cc(Cc2n[nH]c(=O)c3ccccc23)ccc1F)N1CCN(C(=O)C2CC2)CC1 | 0.88 | 0.73 | 0.78 | 0.98 | 0.94 | 1.03
32 | NC(CO)(CO)CO [Trometamol] | 0.72 | 0.75 | 0.74 | 0.72 | 0.53 | 0.77
33 | CC1(C)S[C@@H]2[C@H](NC(=O)C(C(=O)O)c3ccccc3)C(=O)N2[C@H]1C(=O)O (stereo not given in full) [Carbenicillin disodium] | 0.88 | 0.73 | 0.53 | 0.8 | 0.65 | 0.69
34 | COc1cc(C(=O)NC2CCCNC2)cc(OC)c1OC (stereo not given) [Troxipide] | 0.84 | 0.95 | 0.83 | 0.77 | 1.02 | 0.91
35 | CN1CCC[C@@H]1Cc1c[nH]c2ccc(CCS(=O)(=O)c3ccccc3)cc12 [Eletriptan HBr] | 0.97 | 0.74 | 0.59 | 0.96 | 0.68 | 0.73
36 | O=C(Nc1nc2cccc(-c3ccc(CN4CCS(=O)(=O)CC4)cc3)n2n1)C1CC1 [Filgotinib (GLPG0634)] | 0.7 | 0.77 | 1.09 | 0.73 | 0.61 | 0.58
37 | CC(C)c1nc(N(C)S(C)(=O)=O)nc(-c2ccc(F)cc2)c1/C=C/[C@@H](O)C[C@@H](O)CC(=O)O [Rosuvastatin Calcium] | 0.74 | 0.75 | 0.85 | 0.68 | 0.7 | 0.71
38 | CCCCCCCCCCCC[N+](C)(C)CCOc1ccccc1 [Domiphen Bromide] | 1.11 | 0.6 | 1.12 | 0.11 | 0.81 | 1.54
39 | CC(C)N(CCCCOCC(=O)NS(C)(=O)=O)c1cnc(-c2ccccc2)c(-c2ccccc2)n1 [Selexipag] | 1.37 | 0.67 | 0.94 | 1.01 | 1.23 | 1.02
40 | C[C@]12CC[C@@H]3c4ccc(O)cc4CC[C@H]3[C@@H]1C[C@@H](O)[C@@H]2O [Estriol] | 0.96 | 0.87 | 1 | 0.77 | 0.69 | 0.83
41 | NS(=O)(=O)c1cc2c(cc1Cl)N=C(CSCc1ccccc1)NS2(=O)=O [Benzthiazide] | 0.97 | 0.9 | 0.87 | 1 | 0.91 | 0.79
42 | O=S(=O)(O)CCSSCCS(=O)(=O)O [Dimesna] | 1.05 | 1.31 | 1.33 | 1.12 | 0.91 | 0.95
43 | CC(C)(C)NCC(O)COc1cccc2c1CCC(=O)N2 (stereo not given) [Carteolol HCl] | 0.79 | 0.99 | 0.8 | 0.84 | 0.67 | 0.68
44 | C[C@H](NC(=O)C(=O)Nc1ccccc1C(C)(C)C)C(=O)N[C@@H](CC(=O)O)C(=O)COc1c(F)c(F)cc(F)c1F [Emricasan] | 0.99 | 0.72 | 0.77 | 0.7 | 0.78 | 0.75
45 | c1ccc(CC2=NCCN2)cc1 [Tolazoline HCl] | 1.15 | 0.99 | 0.95 | 0.93 | 0.94 | 1.04
46 | CC1Cc2ccccc2N1NC(=O)c1ccc(Cl)c(S(N)(=O)=O)c1 (stereo not given) [Indapamide] | 1 | 1.11 | 1.34 | 1.31 | 1.17 | 1.07
47 | O=C(O)c1cc(=O)c2ccccc2o1 [Chromocarb] | 0.84 | 0.66 | 0.84 | 0.57 | 0.56 | 0.56
48 | CO[C@H]1C[C@@H]2CC[C@@H](C)[C@@](O)(O2)C(=O)C(=O)N2CCCC[C@H]2C(=O)O[C@H]([C@H](C)C[C@@H]2CC[C@@H](OCCO)[C@H](OC)C2)CC(=O)[C@H](C)/C=C(\C)[C@@H](O)[C@@H](OC)C(=O)[C@H](C)C[C@H](C)/C=C/C=C/C=C/1C [Everolimus (RAD001)] | 0.05 | 0.46 | 0.27 | 0.06 | 0.08 | 0.05
49 | COc1ccccc1Oc1c(NS(=O)(=O)c2ccc(C(C)(C)C)cc2)nc(-c2ncccn2)nc1OCCO [Bosentan Hydrate] | 1.01 | 0.75 | 0.83 | 0.6 | 0.58 | 0.71
50 | Oc1ccc(Cl)c2cccnc12 [Cloxiquine] | 1.07 | 0.78 | 0.73 | 0.24 | 0.72 | 0.31
